PubChem BioAssay AID504784 – Drosophila RNAi Screening Center | 2011

Aim: 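Genome-wide knock-down for genes giving too much or too little stored lipid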 (primary screen)
System: Drosophila Kc167 embryonic cells
Reagents: long dsRNA against Drosophila genes, about 250 ng dsRNA per well
Duration: 4 days
Treatment: cells fed 400 µM oleic acid bound to BSA
Read-out: 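Microscope images give a droplet-to-nucleus area ratio, taken as log and converted to a screen-wide B-score; higher values mean greater lipid storage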
Reading the numbers: droplet/nuclear area B-score: higher = more stored lipid (overstorage)
The screen tested about 17,000 reagents; below is a random part of those with a known target gene and a result. 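Each column is one replicate's B-score; the combined score over replicates was not deposited, so single values may mislead.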 Reagents against one gene are numbered here. Names joined by + are all predicted targets of the reagent. Not all columns of the deposit are shown. Reagent sequences are not shown.

no.	target gene	reagent no.	droplet/nuclear area B-score, replicate 1	droplet/nuclear area B-score, replicate 2
1	tilB	1	0.998	1.03
2	Tbh	1	0.355	1.29
3	Elp1	1	-5.08	8.25
4	Dhc93AB	1	0.0906	0.589
5	ovm + CG31975	1	-0.75	-1.47
6	Tob	1	-0.204	-1.53
7	CG5381	1	0.00553	0.218
8	Vps8	1	-2.21	1.06
9	Noc3	1	-0.0189	0.302
10	CG4367	1	0.416	-0.502
11	CG31819	1	0.402	0.727
12	CG14861	1	0.552	-1.17
13	Swt1	1	0.602	-0.653
14	Nup107	1	0.445	-0.0266
15	Iru	1	3.31	1.32
16	Cyp6g2	1	0.679	-1.22
17	AstCC	1	0.696	0.992
18	CG17267	1	-0.106	-1.69
19	LysX	1	-0.191	0.167
20	nol	1	-0.188	-0.401
21	Gr36b	1	0.06	0.00993
22	Aduk	1	0.0627	-0.173
23	MESR6	1	1.01	0.0778

The list goes on, starting with the last 2 of the part before.
no.	target gene	reagent no.	droplet/nuclear area B-score, replicate 1	droplet/nuclear area B-score, replicate 2
22	Aduk	1	0.0627	-0.173
23	MESR6	1	1.01	0.0778
24	Eig71Ed	1	-0.00664	1.66
25	Obp50b + Obp50c	1	-1.34	0.238
26	yellow-e2	1	-0.285	-2.28
27	rho-4	1	-0.198	0.0571
28	rho-4	2	-0.204	-0.358
29	Lrr47	1	1.11	-1.48
30	Tengl4	1	0.2	1.37
31	CG31274 + MESK4	1	0.562	-1.71
32	CG33464 (retired record)	1	-1.08	-0.161
33	Fili	1	0.768	0.701
34	Fili	2	-1.19	-0.952
35	fry	1	0.0458	3.03
36	fry	2	-0.13	-0.457
37	fry	3	0.169	-0.824
38	fry	4	1.18	1.12
39	tsu	1	1.07	0.0882
40	C1GalTA	1	0.388	0.509
41	CG32182	1	-2.23	-1.15
42	lace	1	0.00234	0.302
43	CG33461	1	0.0567	1.51
44	CG4593	1	-0.982	-0.191
45	ITP	1	0.0924	-1.61
46	Kif19A	1	-0.477	-0.824
47	CG32188	1	-0.0571	-0.332
48	obe	1	-0.0953	6.09
49	CG30110	1	-0.101	1.19
50	CG11085	1	-0.213	-0.269
51	CG11085	2	0.438	-1.05
52	CG8483	1	-0.873	8.94
53	gce	1	0.184	0.863
54	gce	2	-0.795	-2.73
55	CG32017	1	-0.152	0.0348
56	CG4558	1	-0.321	2.78
